Experimental data taken from the supplement of paper PMC10849652.
The other results are listed elsewhere or left out. Residues, ends and D or L forms follow the SMILES beside them. *: point of attachment. Cbz = O=C(OCc1ccccc1)*

By UniProt entry, the sequences of proteins in these tests, tags left out. Where a name states a change or a piece, a line headed by the entry shows the natural chain unless it says otherwise.
UniProt O94829: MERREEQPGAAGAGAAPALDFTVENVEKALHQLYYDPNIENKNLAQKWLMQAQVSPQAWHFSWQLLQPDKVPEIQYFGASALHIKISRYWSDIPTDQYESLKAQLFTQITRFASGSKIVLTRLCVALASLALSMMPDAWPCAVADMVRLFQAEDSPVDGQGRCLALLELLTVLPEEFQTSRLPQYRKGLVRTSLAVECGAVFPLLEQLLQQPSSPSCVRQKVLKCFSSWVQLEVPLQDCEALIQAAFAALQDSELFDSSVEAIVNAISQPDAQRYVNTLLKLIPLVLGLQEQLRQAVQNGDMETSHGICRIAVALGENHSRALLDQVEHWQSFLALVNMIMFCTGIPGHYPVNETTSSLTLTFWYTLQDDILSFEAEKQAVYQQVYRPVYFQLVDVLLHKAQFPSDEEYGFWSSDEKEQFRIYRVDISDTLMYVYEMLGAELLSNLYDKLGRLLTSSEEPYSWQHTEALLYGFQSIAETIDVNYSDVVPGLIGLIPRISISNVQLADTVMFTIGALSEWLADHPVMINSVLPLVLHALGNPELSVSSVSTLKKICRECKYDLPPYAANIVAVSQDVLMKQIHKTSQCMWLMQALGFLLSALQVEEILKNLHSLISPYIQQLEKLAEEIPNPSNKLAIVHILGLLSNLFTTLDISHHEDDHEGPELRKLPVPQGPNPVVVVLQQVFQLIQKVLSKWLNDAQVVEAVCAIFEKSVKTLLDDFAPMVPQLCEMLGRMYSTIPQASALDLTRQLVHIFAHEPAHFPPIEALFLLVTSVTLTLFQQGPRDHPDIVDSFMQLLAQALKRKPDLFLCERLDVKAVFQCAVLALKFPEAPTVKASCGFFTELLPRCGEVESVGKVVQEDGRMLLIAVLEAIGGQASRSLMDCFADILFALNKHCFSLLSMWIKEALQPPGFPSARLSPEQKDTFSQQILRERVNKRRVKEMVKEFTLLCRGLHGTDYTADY
UniProt Q96LU5: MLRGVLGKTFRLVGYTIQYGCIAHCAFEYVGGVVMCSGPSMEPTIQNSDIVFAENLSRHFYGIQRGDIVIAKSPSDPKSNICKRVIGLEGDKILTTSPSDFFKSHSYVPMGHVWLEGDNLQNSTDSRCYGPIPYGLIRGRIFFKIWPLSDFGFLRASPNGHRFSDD
UniProt O15397, whole entry, looked up: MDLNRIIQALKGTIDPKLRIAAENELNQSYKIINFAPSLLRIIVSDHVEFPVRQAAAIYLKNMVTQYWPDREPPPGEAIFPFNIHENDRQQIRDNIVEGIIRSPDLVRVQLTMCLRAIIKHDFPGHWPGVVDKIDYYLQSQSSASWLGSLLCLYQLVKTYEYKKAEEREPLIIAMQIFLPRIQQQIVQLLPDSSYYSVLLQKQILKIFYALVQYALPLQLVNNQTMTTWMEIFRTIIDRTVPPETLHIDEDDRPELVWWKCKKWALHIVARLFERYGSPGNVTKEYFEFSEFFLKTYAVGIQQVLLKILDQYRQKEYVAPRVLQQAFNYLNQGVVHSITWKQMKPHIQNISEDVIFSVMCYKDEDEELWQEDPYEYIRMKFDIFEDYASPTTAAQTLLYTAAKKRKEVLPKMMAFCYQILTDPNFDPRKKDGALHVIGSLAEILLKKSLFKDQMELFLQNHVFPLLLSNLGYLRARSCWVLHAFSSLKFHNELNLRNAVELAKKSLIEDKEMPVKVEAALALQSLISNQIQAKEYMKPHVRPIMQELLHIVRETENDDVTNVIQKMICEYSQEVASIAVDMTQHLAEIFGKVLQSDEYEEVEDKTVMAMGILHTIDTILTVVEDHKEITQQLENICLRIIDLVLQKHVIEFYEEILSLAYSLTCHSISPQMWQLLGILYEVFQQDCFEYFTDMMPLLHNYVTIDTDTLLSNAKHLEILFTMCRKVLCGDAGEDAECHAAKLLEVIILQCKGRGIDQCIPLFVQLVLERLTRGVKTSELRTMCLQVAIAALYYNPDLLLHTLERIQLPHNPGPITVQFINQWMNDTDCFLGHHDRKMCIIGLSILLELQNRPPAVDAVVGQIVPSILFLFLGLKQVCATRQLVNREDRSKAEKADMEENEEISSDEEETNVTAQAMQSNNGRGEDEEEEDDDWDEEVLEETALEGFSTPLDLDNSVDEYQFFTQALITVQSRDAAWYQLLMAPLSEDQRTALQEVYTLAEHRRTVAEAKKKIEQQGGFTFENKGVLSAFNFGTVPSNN
UniProt Q13123, whole entry, looked up: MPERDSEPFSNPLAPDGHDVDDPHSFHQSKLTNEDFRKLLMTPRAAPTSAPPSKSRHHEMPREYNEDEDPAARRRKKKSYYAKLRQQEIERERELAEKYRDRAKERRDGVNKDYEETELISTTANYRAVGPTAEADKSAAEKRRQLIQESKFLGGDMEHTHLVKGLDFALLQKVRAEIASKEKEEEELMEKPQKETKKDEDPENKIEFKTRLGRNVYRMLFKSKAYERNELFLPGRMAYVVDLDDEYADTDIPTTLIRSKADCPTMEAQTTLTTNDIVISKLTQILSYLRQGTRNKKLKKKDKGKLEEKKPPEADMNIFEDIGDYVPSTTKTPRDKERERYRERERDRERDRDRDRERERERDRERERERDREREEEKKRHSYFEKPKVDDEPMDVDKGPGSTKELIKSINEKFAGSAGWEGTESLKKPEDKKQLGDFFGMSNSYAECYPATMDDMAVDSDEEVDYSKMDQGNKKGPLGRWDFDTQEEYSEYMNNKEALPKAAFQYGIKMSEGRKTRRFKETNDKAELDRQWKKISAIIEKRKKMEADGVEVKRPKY
UniProt A1L0T0: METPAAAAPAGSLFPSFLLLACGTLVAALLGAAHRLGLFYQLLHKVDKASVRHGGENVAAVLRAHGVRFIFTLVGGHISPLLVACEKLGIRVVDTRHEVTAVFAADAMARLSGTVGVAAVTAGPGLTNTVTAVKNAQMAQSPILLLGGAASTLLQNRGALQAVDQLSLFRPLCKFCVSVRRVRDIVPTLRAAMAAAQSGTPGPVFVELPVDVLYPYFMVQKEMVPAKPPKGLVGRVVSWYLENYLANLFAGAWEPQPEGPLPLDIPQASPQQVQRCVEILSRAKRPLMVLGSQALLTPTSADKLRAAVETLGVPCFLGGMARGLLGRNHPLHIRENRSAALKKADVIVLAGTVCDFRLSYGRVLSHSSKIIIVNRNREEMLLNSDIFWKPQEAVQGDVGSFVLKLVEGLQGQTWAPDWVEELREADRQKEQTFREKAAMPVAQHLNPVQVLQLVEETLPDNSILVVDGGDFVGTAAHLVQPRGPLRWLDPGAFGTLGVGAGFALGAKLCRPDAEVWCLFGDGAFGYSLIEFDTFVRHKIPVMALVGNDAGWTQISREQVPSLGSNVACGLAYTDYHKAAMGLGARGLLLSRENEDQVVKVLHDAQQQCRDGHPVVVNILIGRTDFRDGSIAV
UniProt P22692: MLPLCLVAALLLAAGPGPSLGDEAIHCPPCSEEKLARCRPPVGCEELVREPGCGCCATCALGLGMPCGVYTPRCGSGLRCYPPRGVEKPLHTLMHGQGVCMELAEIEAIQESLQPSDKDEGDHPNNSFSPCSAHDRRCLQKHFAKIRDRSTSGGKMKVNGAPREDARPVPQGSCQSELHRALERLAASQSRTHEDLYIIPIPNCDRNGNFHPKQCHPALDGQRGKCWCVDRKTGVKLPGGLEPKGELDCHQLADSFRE
UniProt Q9Y6M1: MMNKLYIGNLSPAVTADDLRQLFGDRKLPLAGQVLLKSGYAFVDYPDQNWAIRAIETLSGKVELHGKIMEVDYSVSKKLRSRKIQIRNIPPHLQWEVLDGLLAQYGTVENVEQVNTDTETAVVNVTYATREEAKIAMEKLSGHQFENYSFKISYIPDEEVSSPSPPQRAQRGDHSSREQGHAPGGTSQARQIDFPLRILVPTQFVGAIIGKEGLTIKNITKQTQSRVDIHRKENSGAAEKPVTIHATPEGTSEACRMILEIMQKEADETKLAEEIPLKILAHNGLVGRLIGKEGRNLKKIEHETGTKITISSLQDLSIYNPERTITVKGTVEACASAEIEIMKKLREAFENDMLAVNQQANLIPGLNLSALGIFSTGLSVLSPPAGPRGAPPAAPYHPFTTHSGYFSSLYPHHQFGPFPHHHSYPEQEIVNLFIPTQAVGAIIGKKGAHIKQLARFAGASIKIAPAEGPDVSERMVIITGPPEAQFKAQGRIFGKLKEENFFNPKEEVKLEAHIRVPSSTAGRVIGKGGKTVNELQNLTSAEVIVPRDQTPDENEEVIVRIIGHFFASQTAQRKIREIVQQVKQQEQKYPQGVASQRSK
UniProt Q9P2H3, whole entry, looked up: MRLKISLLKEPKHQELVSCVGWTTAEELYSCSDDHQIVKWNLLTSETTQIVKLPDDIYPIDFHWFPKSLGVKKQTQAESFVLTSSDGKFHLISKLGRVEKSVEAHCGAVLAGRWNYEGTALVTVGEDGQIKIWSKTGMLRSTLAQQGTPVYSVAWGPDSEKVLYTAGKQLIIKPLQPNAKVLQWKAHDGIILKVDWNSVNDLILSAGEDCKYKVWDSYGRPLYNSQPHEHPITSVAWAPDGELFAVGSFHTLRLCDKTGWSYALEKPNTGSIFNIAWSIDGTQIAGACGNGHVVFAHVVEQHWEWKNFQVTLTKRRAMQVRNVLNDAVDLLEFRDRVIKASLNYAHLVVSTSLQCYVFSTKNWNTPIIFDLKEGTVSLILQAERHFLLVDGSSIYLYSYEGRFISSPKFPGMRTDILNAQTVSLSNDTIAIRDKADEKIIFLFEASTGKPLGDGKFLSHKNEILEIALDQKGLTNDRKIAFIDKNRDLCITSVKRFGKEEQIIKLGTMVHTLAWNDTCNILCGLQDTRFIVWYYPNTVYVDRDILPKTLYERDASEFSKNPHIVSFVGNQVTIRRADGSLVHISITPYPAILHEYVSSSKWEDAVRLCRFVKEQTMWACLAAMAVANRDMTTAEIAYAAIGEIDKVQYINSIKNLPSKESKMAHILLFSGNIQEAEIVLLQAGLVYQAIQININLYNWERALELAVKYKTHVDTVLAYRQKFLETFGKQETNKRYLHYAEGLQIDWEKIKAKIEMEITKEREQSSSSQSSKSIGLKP
UniProt P49441: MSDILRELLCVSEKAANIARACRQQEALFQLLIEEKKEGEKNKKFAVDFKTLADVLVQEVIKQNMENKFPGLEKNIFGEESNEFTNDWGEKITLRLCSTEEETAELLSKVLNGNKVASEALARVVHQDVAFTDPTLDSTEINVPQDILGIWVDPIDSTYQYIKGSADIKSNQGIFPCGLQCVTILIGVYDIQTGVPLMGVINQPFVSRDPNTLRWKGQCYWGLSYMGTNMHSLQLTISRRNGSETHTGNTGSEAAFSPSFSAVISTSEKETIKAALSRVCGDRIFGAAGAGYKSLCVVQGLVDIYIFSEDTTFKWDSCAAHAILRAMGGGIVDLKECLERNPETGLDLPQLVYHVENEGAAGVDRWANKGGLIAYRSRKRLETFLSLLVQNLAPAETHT
UniProt P18065: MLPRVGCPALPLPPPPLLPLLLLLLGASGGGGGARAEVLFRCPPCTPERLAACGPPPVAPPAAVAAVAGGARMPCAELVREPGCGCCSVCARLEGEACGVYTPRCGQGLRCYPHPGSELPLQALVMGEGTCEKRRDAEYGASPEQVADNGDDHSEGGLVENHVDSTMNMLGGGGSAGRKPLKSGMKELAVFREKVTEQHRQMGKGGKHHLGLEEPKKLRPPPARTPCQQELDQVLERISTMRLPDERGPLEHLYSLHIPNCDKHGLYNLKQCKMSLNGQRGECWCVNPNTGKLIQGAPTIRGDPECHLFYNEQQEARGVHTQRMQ
UniProt Q16891: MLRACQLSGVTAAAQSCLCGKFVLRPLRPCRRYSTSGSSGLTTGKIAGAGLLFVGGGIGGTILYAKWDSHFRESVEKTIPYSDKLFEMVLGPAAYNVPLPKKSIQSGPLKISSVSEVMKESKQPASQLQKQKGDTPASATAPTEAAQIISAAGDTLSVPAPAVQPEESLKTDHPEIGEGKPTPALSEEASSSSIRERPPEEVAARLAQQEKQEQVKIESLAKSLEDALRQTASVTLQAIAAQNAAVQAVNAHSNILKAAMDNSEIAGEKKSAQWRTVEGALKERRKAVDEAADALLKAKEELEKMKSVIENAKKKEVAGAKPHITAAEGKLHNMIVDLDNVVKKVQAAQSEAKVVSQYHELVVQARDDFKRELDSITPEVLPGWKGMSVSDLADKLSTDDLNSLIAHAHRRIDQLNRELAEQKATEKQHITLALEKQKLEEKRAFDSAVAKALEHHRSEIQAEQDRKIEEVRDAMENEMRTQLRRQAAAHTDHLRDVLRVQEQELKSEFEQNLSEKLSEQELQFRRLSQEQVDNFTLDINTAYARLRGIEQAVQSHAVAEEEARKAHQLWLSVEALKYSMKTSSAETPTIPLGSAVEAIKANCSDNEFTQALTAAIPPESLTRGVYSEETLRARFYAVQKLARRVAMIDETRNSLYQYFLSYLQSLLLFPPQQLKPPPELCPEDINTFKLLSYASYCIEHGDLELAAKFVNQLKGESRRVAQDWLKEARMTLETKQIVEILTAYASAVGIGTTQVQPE
UniProt Q9Y5U9: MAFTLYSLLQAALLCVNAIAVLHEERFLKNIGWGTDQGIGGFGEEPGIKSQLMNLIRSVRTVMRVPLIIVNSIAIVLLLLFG

Assays:
Test in all cases: log2 fold change, soluble protein after heating vs DMSO (PISA); higher = thermal stabilisation; K562 cells, 10 uM, 30 min; active = over 0.2 and 3.5 SD of the protein, either way, in both replicates (recomputed)
[1] = compound: C#Cc1cccc(Nc2ncnc3cc(OCCOC)c(OCCOC)cc23)c1 [erlotinib]
Procedure, shortened: (§1)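 Soluble protein was quantified by TMTpro 16plex LC-MS/MS after channel sums were equalised. It was obtained as the supernatant after 21,000xg for 90 min from pooled aliquots of K562 cells (2×10^6 cells/mL, 10 μM compound, 30 min) heated for 3 min across 48°C-58°C and extracted in PBS with 0.5% NP-40 at 4°C. Thermal stability values are relative to control samples and come from duplicates. They are given as log2 fold changes.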

[2] = compound: C/C(=N\NC(=O)C1=CC(=CC=C1)S(=O)(=O)N2CCOCC2)/C3=C(C=CC(=C3)Cl)O
Procedure, shortened: as §1

[3] = compound: C1=CC(=C(C=C1Cl)C2=NC3=NC=CN=C3C(=N2)NC4=CC=NC=C4)F
Procedure, shortened: as §1

[4] = compound: C1=CC(=CC=C1C2=NC3=C(N2)C=C(C=C3)C(=O)N)OC4=CC=C(C=C4)Cl
Procedure, shortened: as §1

[5] = compound: C1=CC2=C(C=CC(=C2)/C=C\3/C(=O)NC(=NCC4=CC=CS4)S3)N=C1
Procedure, shortened: as §1

[6] = compound: C1=CC2=NC=CN=C2C=C1/C=C/3\C(=O)NC(=O)S3
Procedure, shortened: as §1

[7] = compound: C1=CC=C(C=C1)C2=NC(=C(N2)C3=CC=NC=C3)C4=CC(=C(C=C4)Cl)O
Procedure, shortened: as §1

[8] = compound: C1=CC=C2C(=C1)C3=NNC4=CC=CC(=C43)C2=O
Procedure, shortened: as §1

[9] = compound: C1CCN(C1)C(=O)NC2=CC=CC(=C2)NC3=NC=C(C(=N3)NCCC4=CN=CN4)Br
Procedure, shortened: as §1

[10] = compound: C1CN(CCC1(CC2=CC=C(C=C2)Cl)N)C3=NC=NC4=C3C=CN4
Procedure, shortened: as §1

[11] = compound: C1COCCN1CCN2C3=CC=CC=C3N=C2NC(=O)C4=CC(=CC=C4)[N+](=O)[O-] [IRAK-1-4 Inhibitor I]
Procedure, shortened: as §1

[12] = compound: C=CC(=O)N1CCC[C@@H](n2nc(-c3ccc(Oc4ccccc4)cc3)c3c(N)ncnc32)C1 [ibrutinib]
Procedure, shortened: as §1

[13] = compound: CC(=O)c1cnc2ccc(-c3cc(Cl)c(O)c(Cl)c3)nc2c1N[C@H]1CC[C@H](CN(C)C)CC1
Procedure, shortened: as §1

[14] = compound: CC(C)(C)Cn1c(N)nc2ccc(-c3[nH]c(C(C)(C)C)nc3-c3ccc(F)cc3)nc21 [ralimetinib]
Procedure, shortened: as §1

[15] = compound: CC(C)(O)CC(=O)NCCn1ccc2ncnc(Nc3ccc(Oc4cccc(C(F)(F)F)c4)c(Cl)c3)c21
Procedure, shortened: as §1

[16] = compound: CC(C)C1=C2N=C(C=C(N2N=C1)NCC3=CC=CC=C3)NCCCCCCN
Procedure, shortened: as §1

[17] = compound: CC(C)C[C@@H](C=O)NC(=O)[C@H](CC(C)C)NC(=O)[C@H](CC(C)C)NC(=O)OCc1ccccc1
Procedure, shortened: as §1

[18] = compound: CC(C)N(C[C@H]1O[C@@H](n2cnc3c(N)ncnc32)[C@H](O)[C@@H]1O)[C@H]1C[C@@H](CCc2nc3cc(C(C)(C)C)ccc3[nH]2)C1 [pinometostat]
Procedure, shortened: as §1

[19] = compound: CC1=C(C2=C(C=C1)C(=O)C3=CC=CC=C3N2CCCN)C
Procedure, shortened: as §1

Measured: log2 fold change

IFT74 (UniProt Q96LB3)
inactive: [1] 0.248 | [3] 0.125 | [4] -0.352 | [5] 0.087 | [6] -0.033 | [7] 0.211 | [8] -0.038 | [9] -0.076 | [10] 0.337 | [11] 0.067 | [12] 0.146 | [13] 0.02 | [14] 0.27 | [15] -0.095 | [16] 0.191 | [17] 0.076 | [18] -0.024 | [19] 0.071
active: [2] -0.95

IPO13 (UniProt O94829)
active: [16] -0.281
inactive: [1] -0.045 | [2] -0.018 | [3] 0.05 | [4] -0.037 | [5] 0.025 | [6] 0.021 | [7] -0.059 | [8] -0.033 | [9] 0.013 | [10] -0.062 | [11] -0.005 | [12] -0.1 | [13] 0.066 | [14] 0.103 | [15] -0.226 | [17] 0.002 | [18] 0.015 | [19] -0.04

IMMP1L (UniProt Q96LU5)
inactive: [1] 0.053 | [2] -0.018 | [3] 0.01 | [4] -0.017 | [5] 0.104 | [6] -0.022 | [7] -0.084 | [8] -0.046 | [9] 0.041 | [10] 0.013 | [11] 0.006 | [12] 0.043 | [13] 0.002 | [14] 0.031 | [15] 0.03 | [16] 0.026 | [17] 0.112 | [18] -0.033 | [19] 0.199

Reprinted from the listing (two entries):
IFT74 (UniProt Q96LB3)
inactive: [1] 0.248 | [3] 0.125 | [4] -0.352 | [5] 0.087 | [6] -0.033 | [7] 0.211 | [8] -0.038 | [9] -0.076 | [10] 0.337 | [11] 0.067 | [12] 0.146 | [13] 0.02 | [14] 0.27 | [15] -0.095 | [16] 0.191 | [17] 0.076 | [18] -0.024 | [19] 0.071
active: [2] -0.95

IPO13 (UniProt O94829)
active: [16] -0.281
inactive: [1] -0.045 | [2] -0.018 | [3] 0.05 | [4] -0.037 | [5] 0.025 | [6] 0.021 | [7] -0.059 | [8] -0.033 | [9] 0.013 | [10] -0.062 | [11] -0.005 | [12] -0.1 | [13] 0.066 | [14] 0.103 | [15] -0.226 | [17] 0.002 | [18] 0.015 | [19] -0.04

Following part:

IPO8 (UniProt O15397)
inactive: [1] 0.05 | [2] -0.016 | [3] -0.223 | [4] -0.024 | [5] 0.089 | [6] -0.069 | [7] -0.128 | [8] 0.05 | [9] -0.078 | [10] -0.052 | [11] -0.103 | [12] -0.164 | [13] -0.012 | [14] 0.19 | [15] 0 | [16] -0.35 | [17] 0.209 | [18] 0.241 | [19] 0.041

IK (UniProt Q13123)
inactive: [1] 0.049 | [2] 0 | [3] -0.069 | [4] 0 | [5] 0.055 | [6] -0.022 | [7] -0.016 | [8] -0.11 | [9] -0.004 | [10] -0.065 | [11] -0.139 | [12] -0.067 | [13] -0.06 | [14] -0.007 | [15] 0.054 | [16] 0.031 | [17] 0.239 | [18] 0.038 | [19] 0.148

ILVBL (UniProt A1L0T0)
inactive: [1] 0.027 | [2] 0.092 | [3] -0.035 | [4] -0.02 | [5] 0.178 | [6] -0.03 | [7] 0.009 | [8] -0.026 | [9] 0.014 | [10] 0.095 | [11] 0.073 | [12] 0.048 | [13] -0.027 | [14] -0.075 | [15] -0.053 | [16] 0.058 | [17] -0.018 | [18] 0.066 | [19] 0.025

IGFBP4 (UniProt P22692)
inactive: [1] -0.03 | [2] -0.14 | [3] 0.023 | [4] 0.093 | [5] -0.124 | [6] 0.178 | [7] -0.051 | [8] -0.217 | [9] 0.108 | [10] 0.076 | [11] 0.011 | [12] -0.015 | [13] 0.171 | [14] -0.04 | [15] 0.047 | [16] 0.028 | [17] 0.054 | [18] 0.032 | [19] -0.09

IFRD1 (UniProt O00458)
inactive: [1] 0.226 | [2] -0.021 | [3] -0.124 | [4] -0.008 | [5] 0.134 | [6] 0.199 | [7] -0.013 | [8] 0.068 | [9] 0.042 | [10] -0.04 | [11] 0.033 | [12] 0.058 | [13] 0.203 | [14] -0.014 | [15] -0.002 | [16] -0.035 | [17] 0.168 | [18] -0.029
active: [19] -1.05

ITPRIP (UniProt Q8IWB1)
inactive: [1] 0.012 | [2] -0.086 | [3] 0.052 | [4] 0.034 | [5] -0.05 | [6] 0.01 | [7] -0.085 | [8] -0.094 | [9] -0.02 | [10] 0.012 | [11] -0.063 | [12] 0.059 | [13] -0.013 | [14] 0.005 | [15] 0.007 | [16] -0.074 | [17] 0.082 | [18] -0.005 | [19] 0.022

IDH3A (UniProt P50213)
inactive: [1] 0.021 | [2] 0.034 | [3] 0.1 | [4] 0.023 | [5] 0.021 | [6] 0.017 | [7] -0.03 | [8] 0.024 | [9] -0.009 | [10] 0.028 | [11] 0.033 | [12] 0.021 | [13] -0.008 | [14] -0.085 | [15] -0.044 | [16] 0.034 | [17] 0 | [18] -0.029 | [19] 0.015

IGF2BP2 (UniProt Q9Y6M1)
inactive: [1] -0.013 | [2] -0.083 | [3] -0.255 | [4] -0.015 | [5] 0.158 | [6] 0.014 | [7] 0.007 | [8] 0.075 | [9] 0.057 | [10] 0.075 | [11] -0.168 | [12] 0.048 | [13] -0.011 | [14] 0.209 | [15] 0.037 | [16] -0.249 | [17] 0.106 | [18] 0.477 | [19] -0.054

IFT80 isoform 3 (UniProt Q9P2H3)
inactive: [1] 0.04 | [2] 0.071 | [3] -0.04 | [4] 0.013 | [5] 0.042 | [6] -0.011 | [7] -0.066 | [8] -0.229 | [9] -0.013 | [10] 0.042 | [11] 0.03 | [12] 0.099 | [13] -0.073 | [14] -0.02 | [15] -0.118 | [16] -0.113 | [17] 0.072 | [18] 0.049 | [19] 0.073

INPP1 (UniProt P49441)
inactive: [1] 0.014 | [2] 0.006 | [3] 0.073 | [4] 0.059 | [5] 0.042 | [6] -0.01 | [7] 0.005 | [8] 0.044 | [9] 0.01 | [10] -0.101 | [11] -0.001 | [12] 0.023 | [13] -0.003 | [14] -0.108 | [15] -0.039 | [16] 0.016 | [17] -0.007 | [18] -0.054 | [19] -0.03

ITM2B (UniProt Q9Y287)
inactive: [1] 0.099 | [2] -0.012 | [3] -0.122 | [4] 0.041 | [5] 0 | [6] 0.042 | [7] 0.068 | [8] -0.12 | [9] -0.066 | [10] 0.027 | [11] -0.008 | [12] 0.071 | [13] -0.043 | [14] -0.005 | [15] -0.042 | [16] -0.119 | [17] 0.197 | [18] 0.03 | [19] -0.198

IGFBP2 (UniProt P18065)
inactive: [1] -0.074 | [2] -0.023 | [3] -0.146 | [4] 0.3 | [5] 0.054 | [6] 0.03 | [7] 0.09 | [8] -0.209 | [9] 0.065 | [10] 0.039 | [11] 0.196 | [12] 0.09 | [13] 0.166 | [14] -0.115 | [15] -0.063 | [16] -0.137 | [17] 0.008 | [18] -0.192 | [19] -0.159

IMMT isoform 2 (UniProt Q16891)
inactive: [1] -0.057 | [2] 0.043 | [3] 0.051 | [4] -0.022 | [5] -0.07 | [6] -0.021 | [7] -0.026 | [8] 0.021 | [9] 0.007 | [10] 0.047 | [11] 0.053 | [12] -0.011 | [13] 0.022 | [14] 0.054 | [15] 0.051 | [16] 0.015 | [17] -0.028 | [18] 0.058 | [19] -0.106

IER3IP1 (UniProt Q9Y5U9)
inactive: [1] -0.065 | [2] 0.082 | [3] -0.11 | [4] -0.006 | [5] -0.111 | [6] 0.167 | [7] 0.038 | [8] -0.061 | [9] -0.052 | [10] 0.023 | [11] 0.079 | [12] -0.08 | [13] 0.106 | [14] 0.113 | [15] 0.158 | [16] 0.106 | [17] -0.194 | [18] -0.043 | [19] -0.027
